For this experiment, the target named is HA-tagged PER1, O35973. In words: co-IP; B6F10 cells co-transfected with HA-PER1 and PPAR-γ2; lysis in 10 mM Tris-HCl pH 8, 420 mM NaCl, 1 mM EDTA, 0.5% NP-40; anti-HA antibody overnight at 4 °C, Protein A-Sepharose 4B; blot for PPAR-γ2; also with GW9662 (10 μM) or troglitazone (10 μM) added 3 h before harvest (association not significantly altered). The following applies: remark: other sources report otherwise.

These are yes or no findings as the source states them, for the method shown. In cells and extracts the contact can be indirect. Some results given as binding are weak or reduced against the parent protein; the word gives no strength.

B1: PPAR-γ2, P37238-1 1-505 (protein)
chain: MGETLGDSPVDPEHGAFADALPMSTSQEITMVDTEMPFWPTNFGISSVDLSVMEDHSHSFDIKPFTTVDFSSISAPHYEDIPFTRADPMVADYKYDLKLQEYQSAIKVEPASPPYYSEKTQLYNRPHEEPSNSLMAIECRVCGDKASGFHYGVHACEGCKGFFRRTIRLKLIYDRCDLNCRIHKKSRNKCQYCRFQKCLAVGMSHNAIRFGRMPQAEKEKLLAEISSDIDQLNPESADLRALAKHLYDSYIKSFPLTKAKARAILTGKTTDKSPFVIYDMNSLMMGEDKIKFKHITPLQEQSKEVAIRIFQGCQFRSVEAVQEITEYAKNIPGFINLDLNDQVTLLKYGVHEIIYTMLASLMNKDGVLISEGQGFMTREFLKNLRKPFGDFMEPKFEFAVKFNALELDDSDLAIFIAVIILSGDRPGLLNVKPIEDIQDNLLQALELQLKLNHPESSQLFAKVLQKMTDLRQIVTEHVQLLHVIKKTETDMSLHPLLQEIYKDLY
For the molecule B1, the binding result is reported as “binds”.

The record behind these values is PMC4855679.
